These are yes or no findings as the source states them, for the method shown. In cells and extracts the contact can be indirect. Some binding calls cover weakened binding; strength is not graded here.
Molecular target: T1, DEP domain containing 1A (DEPDC1A) (UniProt Q5TB30)
T1 sequence: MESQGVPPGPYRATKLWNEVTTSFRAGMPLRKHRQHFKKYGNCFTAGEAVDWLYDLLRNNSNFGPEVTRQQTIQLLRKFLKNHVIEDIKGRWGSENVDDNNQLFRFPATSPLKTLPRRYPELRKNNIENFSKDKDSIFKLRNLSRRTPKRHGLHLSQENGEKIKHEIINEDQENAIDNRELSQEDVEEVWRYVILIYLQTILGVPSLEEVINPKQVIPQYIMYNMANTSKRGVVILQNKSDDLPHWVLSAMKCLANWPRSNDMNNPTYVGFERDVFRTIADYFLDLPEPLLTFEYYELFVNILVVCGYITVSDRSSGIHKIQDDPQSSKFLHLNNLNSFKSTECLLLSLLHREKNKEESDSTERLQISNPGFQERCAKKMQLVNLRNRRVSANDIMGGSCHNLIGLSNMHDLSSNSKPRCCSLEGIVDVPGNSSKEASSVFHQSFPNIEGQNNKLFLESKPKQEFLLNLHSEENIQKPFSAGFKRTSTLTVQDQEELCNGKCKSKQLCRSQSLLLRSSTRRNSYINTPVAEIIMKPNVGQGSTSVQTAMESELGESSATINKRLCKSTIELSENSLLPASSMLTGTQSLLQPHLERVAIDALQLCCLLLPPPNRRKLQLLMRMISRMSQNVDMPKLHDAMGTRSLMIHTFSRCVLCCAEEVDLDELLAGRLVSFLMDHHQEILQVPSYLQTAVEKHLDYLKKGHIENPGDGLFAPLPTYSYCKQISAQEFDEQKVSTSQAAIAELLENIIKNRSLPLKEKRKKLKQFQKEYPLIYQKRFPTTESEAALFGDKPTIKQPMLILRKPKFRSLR
Test: co-IP; co-immunoprecipitation; cells, bait, antibodies and buffer not told

By UniProt entry, the sequences of proteins in these tests, tags left out.
UniProt Q86TB3: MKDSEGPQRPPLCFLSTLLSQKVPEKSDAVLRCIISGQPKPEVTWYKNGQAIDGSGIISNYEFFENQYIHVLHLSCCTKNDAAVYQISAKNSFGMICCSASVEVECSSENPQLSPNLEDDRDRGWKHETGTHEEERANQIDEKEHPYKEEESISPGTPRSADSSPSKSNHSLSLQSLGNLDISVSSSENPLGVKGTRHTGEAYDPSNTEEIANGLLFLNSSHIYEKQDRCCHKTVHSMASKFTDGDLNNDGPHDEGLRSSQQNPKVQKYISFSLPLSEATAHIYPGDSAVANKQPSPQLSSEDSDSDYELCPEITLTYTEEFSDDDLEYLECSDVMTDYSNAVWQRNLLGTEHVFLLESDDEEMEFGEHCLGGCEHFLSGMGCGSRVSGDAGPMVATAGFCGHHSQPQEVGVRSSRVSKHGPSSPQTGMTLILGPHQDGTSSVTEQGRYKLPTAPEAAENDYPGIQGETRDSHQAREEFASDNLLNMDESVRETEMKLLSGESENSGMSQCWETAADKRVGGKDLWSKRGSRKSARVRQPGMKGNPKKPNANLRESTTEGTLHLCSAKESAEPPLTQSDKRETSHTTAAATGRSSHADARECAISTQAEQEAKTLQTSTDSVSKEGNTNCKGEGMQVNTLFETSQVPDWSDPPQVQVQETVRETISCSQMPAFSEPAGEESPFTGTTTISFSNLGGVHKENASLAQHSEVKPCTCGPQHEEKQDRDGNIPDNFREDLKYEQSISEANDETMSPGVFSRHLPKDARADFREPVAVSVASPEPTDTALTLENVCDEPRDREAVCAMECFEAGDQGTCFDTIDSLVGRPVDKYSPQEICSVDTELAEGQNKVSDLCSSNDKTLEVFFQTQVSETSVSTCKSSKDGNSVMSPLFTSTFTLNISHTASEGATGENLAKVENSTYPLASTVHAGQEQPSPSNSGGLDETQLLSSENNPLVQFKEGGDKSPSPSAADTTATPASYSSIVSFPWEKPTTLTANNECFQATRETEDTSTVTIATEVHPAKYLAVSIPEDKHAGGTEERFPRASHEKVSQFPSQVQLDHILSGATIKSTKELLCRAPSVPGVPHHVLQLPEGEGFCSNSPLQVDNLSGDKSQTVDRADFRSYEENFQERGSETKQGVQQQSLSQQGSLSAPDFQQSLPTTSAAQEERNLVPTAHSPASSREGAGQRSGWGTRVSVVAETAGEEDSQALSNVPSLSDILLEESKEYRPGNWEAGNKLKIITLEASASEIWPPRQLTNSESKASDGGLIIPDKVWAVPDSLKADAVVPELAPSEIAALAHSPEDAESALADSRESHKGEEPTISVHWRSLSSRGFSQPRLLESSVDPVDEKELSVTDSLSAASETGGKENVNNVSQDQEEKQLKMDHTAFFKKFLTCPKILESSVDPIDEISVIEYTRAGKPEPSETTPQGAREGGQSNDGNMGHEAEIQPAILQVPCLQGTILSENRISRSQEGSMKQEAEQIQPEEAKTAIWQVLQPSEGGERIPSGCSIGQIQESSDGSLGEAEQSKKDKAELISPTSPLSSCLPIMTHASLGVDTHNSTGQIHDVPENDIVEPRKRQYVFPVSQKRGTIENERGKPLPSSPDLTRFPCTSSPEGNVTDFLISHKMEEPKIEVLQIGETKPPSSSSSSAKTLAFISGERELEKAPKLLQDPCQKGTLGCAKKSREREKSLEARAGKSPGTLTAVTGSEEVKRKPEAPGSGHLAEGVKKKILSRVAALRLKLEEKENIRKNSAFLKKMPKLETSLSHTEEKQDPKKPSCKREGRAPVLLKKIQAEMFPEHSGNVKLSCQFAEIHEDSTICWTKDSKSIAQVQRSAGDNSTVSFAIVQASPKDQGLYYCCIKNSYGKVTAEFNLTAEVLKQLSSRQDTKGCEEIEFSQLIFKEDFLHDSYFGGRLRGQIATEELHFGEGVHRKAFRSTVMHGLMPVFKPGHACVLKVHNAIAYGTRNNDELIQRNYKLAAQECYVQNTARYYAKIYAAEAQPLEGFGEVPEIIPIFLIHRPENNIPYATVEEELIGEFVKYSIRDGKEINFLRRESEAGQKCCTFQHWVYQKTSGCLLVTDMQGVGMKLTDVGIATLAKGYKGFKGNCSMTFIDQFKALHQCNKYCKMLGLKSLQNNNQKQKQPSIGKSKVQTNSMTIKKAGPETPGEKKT

Alpha protein kinase 2 (ALPK2) (from UniProt Q86TB3 1-2170)
binding: binds

Source: PMC8249393
